{"sequences": {"note": "The chains behind the UniProt entries cited, without tags or fusion partners.", "UniProt Q04206": "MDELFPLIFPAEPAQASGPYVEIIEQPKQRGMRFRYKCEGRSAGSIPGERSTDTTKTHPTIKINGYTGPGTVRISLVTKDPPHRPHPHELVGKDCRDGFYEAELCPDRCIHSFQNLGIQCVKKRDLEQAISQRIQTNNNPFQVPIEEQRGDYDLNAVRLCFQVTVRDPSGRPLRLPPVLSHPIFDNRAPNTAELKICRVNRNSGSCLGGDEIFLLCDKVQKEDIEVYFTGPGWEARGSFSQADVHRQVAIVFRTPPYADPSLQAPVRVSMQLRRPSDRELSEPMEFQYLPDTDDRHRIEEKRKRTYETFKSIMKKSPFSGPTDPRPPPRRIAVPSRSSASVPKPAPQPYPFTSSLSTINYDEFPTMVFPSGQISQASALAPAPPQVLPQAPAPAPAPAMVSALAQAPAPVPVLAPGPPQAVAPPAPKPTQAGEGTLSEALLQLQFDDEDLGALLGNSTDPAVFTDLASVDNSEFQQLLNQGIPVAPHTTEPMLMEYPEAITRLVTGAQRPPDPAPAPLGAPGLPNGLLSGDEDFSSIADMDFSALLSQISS"}, "source": "patent US20190054137A1", "about": "(INDIANA UNIVERSITY RESEARCH AND TECHNOLOGY, published 2019)", "binders": {"B1": {"name": "purified recombinant human GILZ protein (r-GILZ) with GST tag (protein, UniProt Q99576 1-134, looked up, not shown: a dimerising Fc or GST)", "chain": "MNTEMYQTPMEVAVYQLHNFSISFFSSLLGGDVVSVKLDNSASGASVVAIDNKIEQAMDLVKNHLMYAVREEVEILKEQIRELVEKNSQLERENTLLKTLASPEQLEKFQSCLSPEEPAPESPQVPEAPGGSAV"}}, "target": "Recombinant human p65 protein (r-p65) with DDK tag (OriGene catalog number TP320780) (human) (UniProt Q04206)", "test": "plate-bound r-GILZ (0.5 µM to 20 µM) probed with 80 pM r-p65, anti-DDK detection; used as the 100% reference", "note": "Results are given in words; binding and its absence hold for the method and conditions named. Some entries that bind do so weakly or less than the wild type. Sequences can lack the tags named with a protein.", "data": [{"binder": "B1", "values": [{"measurement": "binding", "value": "binds"}]}]}
